These are yes or no findings as the source states them, for the method shown. In cells and extracts the contact can be indirect. For some of these results: Binding calls can cover weak binding; strength is not graded here. One block for each binder: values may come before it.
Columns and labels:
[1] = target: GST-MCM7-C (C-terminal fragment of MCM7, 219 amino acids); experiment: pull-down; GST-MCM7 fragments purified on glutathione-Sepharose 4B, with A549 cell lysates; bound protein found by immunoblot; only the target purified
[2] = target: GST-MCM7-C (C-terminal fragment of MCM7, 219 amino acids); experiment: pull-down; GST pull-down with MCM7-C and lysates, different amounts of anti-LMNB2 antibody (1, 2.5, 5 ug) as printed; RB read by blot; only the target purified
[3] = target: V5-ΔMCM7 (C-terminus deletion mutant of MCM7); experiment: co-IP; A549 cells with FLAG-MCM7 (full length) or V5-ΔMCM7; lamin B2 of the lysate found by blot

binding [1]: binds
binding [2]: binds
B1: RB (retinoblastoma protein) in A549 lysate (protein, UniProt P06400 1-928)
chain: MPPKTPRKTAATAAAAAAEPPAPPPPPPPEEDPEQDSGPEDLPLVRLEFEETEEPDFTALCQKLKIPDHVRERAWLTWEKVSSVDGVLGGYIQKKKELWGICIFIAAVDLDEMSFTFTELQKNIEISVHKFFNLLKEIDTSTKVDNAMSRLLKKYDVLFALFSKLERTCELIYLTQPSSSISTEINSALVLKVSWITFLLAKGEVLQMEDDLVISFQLMLCVLDYFIKLSPPMLLKEPYKTAVIPINGSPRTPRRGQNRSARIAKQLENDTRIIEVLCKEHECNIDEVKNVYFKNFIPFMNSLGLVTSNGLPEVENLSKRYEEIYLKNKDLDARLFLDHDKTLQTDSIDSFETQRTPRKSNLDEEVNVIPPHTPVRTVMNTIQQLMMILNSASDQPSENLISYFNNCTVNPKESILKRVKDIGYIFKEKFAKAVGQGCVEIGSQRYKLGVRLYYRVMESMLKSEEERLSIQNFSKLLNDNIFHMSLLACALEVVMATYSRSTSQNLDSGTDLSFPWILNVLNLKAFDFYKVIESFIKAEGNLTREMIKHLERCEHRIMESLAWLSDSPLFDLIKQSKDREGPTDHLESACPLNLPLQNNHTAADMYLSPVRSPKKKGSTTRVNSTANAETQATSAFQTQKPLKSTSLSLFYKKVYRLAYLRLNTLCERLLSEHPELEHIIWTLFQHTLQNEYELMRDRHLDQIMMCSMYGICKVKNIDLKFKIIVTAYKDLPHAVQETFKRVLIKEEEYDSIIVFYNSVFMQRLKTNILQYASTRPPTLSPIPHIPRSPYKFPSSPLRIPGGNIYISPLKSPYKISEGLPTPTKMTPRSRILVSIGESFGTSEKFQKINQMVCNSDRVLKRSAEGSNPPKPLKKLRFDIEGSDEADGSKHLPGESKFQQKLAEMTSTRTRMQKQKMNDSMDTSNKEEK

binding [3]: no binding
binding [1]: binds
B2: lamin B2 (endogenous, A549) (protein, UniProt Q03252 1-620)
chain: MSPPSPGRRREQRRPRAAATMATPLPGRAGGPATPLSPTRLSRLQEKEELRELNDRLAHYIDRVRALELENDRLLLKISEKEEVTTREVSGIKALYESELADARRVLDETARERARLQIEIGKLRAELDEVNKSAKKREGELTVAQGRVKDLESLFHRSEVELAAALSDKRGLESDVAELRAQLAKAEDGHAVAKKQLEKETLMRVDLENRCQSLQEELDFRKSVFEEEVRETRRRHERRLVEVDSSRQQEYDFKMAQALEELRSQHDEQVRLYKLELEQTYQAKLDSAKLSSDQNDKAASAAREELKEARMRLESLSYQLSGLQKQASAAEDRIRELEEAMAGERDKFRKMLDAKEQEMTEMRDVMQQQLAEYQELLDVKLALDMEINAYRKLLEGEEERLKLSPSPSSRVTVSRATSSSSGSLSATGRLGRSKRKRLEVEEPLGSGPSVLGTGTGGSGGFHLAQQASASGSVSIEEIDLEGKFVQLKNNSDKDQSLGNWRIKRQVLEGEEIAYKFTPKYILRAGQMVTVWAAGAGVAHSPPSTLVWKGQSSWGTGESFRTVLVNADGEEVAMRTVKKSSVMRENENGEEEEEEAEFGEEDLFHQQGDPRTTSRGCYVM

From article PMC5739603
